Results deposited as PubChem BioAssay AID1671195 (Yale University, 2021)
Assay: 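Knockdowns that increase or decrease uptake of fluorescent LDL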 (primary screen). Cell system: human Huh7 hepatoma cells. Reagent: siRNA pool against human genes, 18 nM. Time to read-out: about 2 to 2.5 days of knockdown, then 8 h LDL uptake. Conditions: DiI-labelled LDL at 30 µg/ml for 8 h, in lipoprotein-deficient serum medium. Measurement: 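Fluorescent LDL signal imaged in cells, scaled to the plate median, robust z-score for each replicate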. Direction: robust z-score: higher = more LDL uptake after knockdown. Active means: 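Active when two or more replicates show a robust z-score above 2 or below -2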.
In all, the deposit lists about 22,000 reagents; below is an unselected part. About 1,510 of them (6.9%) count as active. 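Active includes knockdowns raising or lowering LDL uptake; positive z-scores mean more uptake, negative mean less.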 Reagent sequences are not shown.

Depletion of LOC401396 (retired record) [SID442903119] came out at: robust z-score, replicate 1 = -1.05; robust z-score, replicate 2 = -1.36; robust z-score, replicate 3 = -1.25; inactive.
LRRC57 [SID442893447] showed robust z-score, replicate 1 = 0.122; robust z-score, replicate 2 = 0.017; robust z-score, replicate 3 = 0.008; inactive.
FBXO6 [SID442885775] gave robust z-score, replicate 1 = 1.8; robust z-score, replicate 2 = 0.985; robust z-score, replicate 3 = 1.34; inactive.
Depletion of DSC1 [SID442887335] resulted in: robust z-score, replicate 1 = 0.69; robust z-score, replicate 2 = 0.647; robust z-score, replicate 3 = 1.47; inactive.
With knock-down of LOC400197 (retired record) [SID442899319], the record shows robust z-score, replicate 1 = -1.09; robust z-score, replicate 2 = -0.298; robust z-score, replicate 3 = -0.425; inactive.
LINC02915 [SID442891741] showed robust z-score, replicate 1 = 0.206; robust z-score, replicate 2 = 0.436; robust z-score, replicate 3 = 0.108; inactive.
Silencing of ADAMTSL2 [SID442899417] gave: robust z-score, replicate 1 = -0.326; robust z-score, replicate 2 = -0.908; robust z-score, replicate 3 = -0.62; inactive.
For SSR3 [SID442887387] the deposit lists robust z-score, replicate 1 = 0.486; robust z-score, replicate 2 = 1.44; robust z-score, replicate 3 = 0.851; inactive.

Look-ups from the entries so far.
Entry of LRRC57 [SID442893447] under “robust z-score, replicate 1”: 0.122
Result of LINC02915 [SID442891741] in “robust z-score, replicate 1”: 0.206
Value of DSC1 [SID442887335] under “robust z-score, replicate 3”: 1.47
For “robust z-score, replicate 2”, LOC400197 (retired record) [SID442899319] reads -0.298

More records:
Depletion of PRKAR2B [SID442900304] came out at: robust z-score, replicate 1 = -0.628; robust z-score, replicate 2 = -0.89; robust z-score, replicate 3 = -0.713; inactive.
Against DAZAP2P1 [SID442892889], the entry reads robust z-score, replicate 1 = 0.0761; robust z-score, replicate 2 = 0.281; robust z-score, replicate 3 = -0.0165; inactive.
Against STN1 [SID442897132], the entry reads robust z-score, replicate 1 = -0.371; robust z-score, replicate 2 = -0.472; robust z-score, replicate 3 = -0.208; inactive.
For ZNF350 [SID442887836] the deposit lists robust z-score, replicate 1 = 0.957; robust z-score, replicate 2 = 1.17; robust z-score, replicate 3 = 0.372; inactive.
With knock-down of IGSF21 [SID442893845], the record shows robust z-score, replicate 1 = -0.0019; robust z-score, replicate 2 = 0.12; robust z-score, replicate 3 = -0.103; inactive.
RAI2 [SID442902021] scored robust z-score, replicate 1 = -1.11; robust z-score, replicate 2 = -2; robust z-score, replicate 3 = 0.11; inactive.
For PTH [SID442884725], the values are robust z-score, replicate 1 = 1.88; robust z-score, replicate 2 = 1.96; robust z-score, replicate 3 = 1.89; inactive.
NEDD4 [SID442891752] showed robust z-score, replicate 1 = 0.0712; robust z-score, replicate 2 = -0.133; robust z-score, replicate 3 = 0.807; inactive.
Knock-down of ADORA2A [SID442889449] gave: robust z-score, replicate 1 = 0.911; robust z-score, replicate 2 = 0.499; robust z-score, replicate 3 = 0.262; inactive.
After knock-down of DBX1 [SID442895574] the results were robust z-score, replicate 1 = 0.195; robust z-score, replicate 2 = 0.284; robust z-score, replicate 3 = -1.03; inactive.
After knock-down of LRRC14B [SID442887312] the results were robust z-score, replicate 1 = 0.701; robust z-score, replicate 2 = 0.776; robust z-score, replicate 3 = 1.35; inactive.
Against PRKCD [SID442899089], the entry reads robust z-score, replicate 1 = -0.514; robust z-score, replicate 2 = 0.0399; robust z-score, replicate 3 = -1.25; inactive.
Against SLC12A8 [SID442889380], the values are robust z-score, replicate 1 = 0.738; robust z-score, replicate 2 = 0.123; robust z-score, replicate 3 = 0.845; inactive.
After knock-down of OR10A4 [SID442899858], the record shows robust z-score, replicate 1 = -0.811; robust z-score, replicate 2 = -0.559; robust z-score, replicate 3 = -0.668; inactive.
Knock-down of NR0B2 [SID442896062] gave: robust z-score, replicate 1 = -0.231; robust z-score, replicate 2 = -0.0342; robust z-score, replicate 3 = -0.437; inactive.
Depletion of DOCK8 [SID442892156] resulted in: robust z-score, replicate 1 = 0.127; robust z-score, replicate 2 = 0.217; robust z-score, replicate 3 = 0.262; inactive.
